From article PMC11167044
Results are given in words; binding and its absence hold for the method and conditions named. In cells and extracts the contact can be indirect. Some binding calls cover weakened binding; strength is not graded here. For part of these data: Tags and fused reporters may be left off the sequences shown. Each block holds one substance with its values, some of them ahead of it.

Chains of the proteins cited; added tags and fusions are not shown.
UniProt P14618: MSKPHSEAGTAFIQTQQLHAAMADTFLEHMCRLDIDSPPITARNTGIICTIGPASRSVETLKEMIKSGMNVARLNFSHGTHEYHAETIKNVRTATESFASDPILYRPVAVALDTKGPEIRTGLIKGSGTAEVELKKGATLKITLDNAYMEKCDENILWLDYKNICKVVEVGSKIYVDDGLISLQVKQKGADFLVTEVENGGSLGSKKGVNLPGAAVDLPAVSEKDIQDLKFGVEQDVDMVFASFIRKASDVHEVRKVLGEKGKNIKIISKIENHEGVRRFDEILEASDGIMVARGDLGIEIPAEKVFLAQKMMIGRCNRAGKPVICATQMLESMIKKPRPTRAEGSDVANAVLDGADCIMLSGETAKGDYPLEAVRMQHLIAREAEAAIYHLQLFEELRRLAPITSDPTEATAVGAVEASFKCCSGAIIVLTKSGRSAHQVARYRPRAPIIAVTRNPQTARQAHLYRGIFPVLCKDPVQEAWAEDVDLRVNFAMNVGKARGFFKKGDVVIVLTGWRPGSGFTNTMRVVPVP
UniProt P49841: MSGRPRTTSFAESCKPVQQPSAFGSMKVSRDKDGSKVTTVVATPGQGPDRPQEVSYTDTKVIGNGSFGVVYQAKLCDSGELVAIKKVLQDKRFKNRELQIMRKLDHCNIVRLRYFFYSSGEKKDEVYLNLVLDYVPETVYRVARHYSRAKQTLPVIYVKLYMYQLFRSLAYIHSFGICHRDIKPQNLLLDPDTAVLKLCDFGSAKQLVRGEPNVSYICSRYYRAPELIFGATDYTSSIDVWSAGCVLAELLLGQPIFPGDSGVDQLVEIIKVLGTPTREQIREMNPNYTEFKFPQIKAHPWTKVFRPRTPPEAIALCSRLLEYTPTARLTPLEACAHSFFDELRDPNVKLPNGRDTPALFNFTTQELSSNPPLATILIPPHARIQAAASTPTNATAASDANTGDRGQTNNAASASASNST
UniProt P99999: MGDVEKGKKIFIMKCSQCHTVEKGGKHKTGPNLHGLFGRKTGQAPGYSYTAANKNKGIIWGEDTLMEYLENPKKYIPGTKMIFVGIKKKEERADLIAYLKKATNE

Tests used:
[1] = target: T1, C-terminally Flag-tagged human MYG1 (full length) (human) (UniProt Q9HB07); experiment: co-IP; whole-cell lysates; antibody on Protein A/G magnetic beads, incubated with lysate 8 to 12 h at 4 °C; lysis buffer 25 mM Tris-HCl pH 7.4, 150 mM NaCl, 1 mM EDTA, 1% NP-40, 5% glycerol; western blot; 293T, HCT116 and LoVo with or without EGF (100 ng/mL, 10 h); SW480 stably overexpressing MYG1
T1 sequence: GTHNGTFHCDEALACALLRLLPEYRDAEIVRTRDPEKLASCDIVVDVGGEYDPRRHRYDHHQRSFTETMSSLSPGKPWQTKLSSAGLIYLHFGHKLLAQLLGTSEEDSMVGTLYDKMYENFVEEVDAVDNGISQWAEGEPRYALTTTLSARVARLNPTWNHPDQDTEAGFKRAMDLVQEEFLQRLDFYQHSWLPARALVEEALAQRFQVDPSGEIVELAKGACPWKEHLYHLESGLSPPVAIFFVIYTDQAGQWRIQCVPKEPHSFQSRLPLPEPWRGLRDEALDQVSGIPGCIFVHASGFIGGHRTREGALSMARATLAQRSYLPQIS

[2] = target: T2, MYG1 in LoVo cells (human (LoVo cells)) (UniProt Q9HB07); experiment: as above
T2 sequence: T1 sequence

[3] = target: PKM2 in 293T and HCT116 cells (human) (UniProt P14618); experiment: as above
[4] = target: PKM2 in LoVo cells (human (LoVo cells)) (UniProt P14618); experiment: as above
[5] = target: T3, MYG1 stably overexpressed in SW480 cells (human) (UniProt Q9HB07); experiment: co-IP; SW480 cells stably overexpressing MYG1; immunoprecipitation from cytoplasm (Cyto) and mitochondria (Mito)
T3 sequence: T1 sequence

[6] = target: T3, MYG1 stably overexpressed in SW480 cells (human); experiment: co-IP; whole-cell lysates; antibody on Protein A/G magnetic beads, incubated with lysate 8 to 12 h at 4 °C; lysis buffer 25 mM Tris-HCl pH 7.4, 150 mM NaCl, 1 mM EDTA, 1% NP-40, 5% glycerol; western blot; 293T, HCT116 and LoVo with or without EGF (100 ng/mL, 10 h); SW480 stably overexpressing MYG1
[7] = target: T1, C-terminally Flag-tagged human MYG1 (full length) (human); experiment: co-IP; 293T cells treated with EGF (100 ng/mL, 10 h), fractioned into cytosol and nucleus, then immunoprecipitation

binding [1]: binds
binding [2]: binds
binding [3]: binds
binding [4]: binds
Substance: GSK3β (from UniProt P49841 1-420) (enzyme)

binding [5]: binds
binding [6]: binds
Substance: Cyt c (from UniProt P99999 1-105)

binding [7]: binds
binding [1]: binds
Substance: PKM2 in 293T and HCT116 cells (from UniProt P14618 1-531) (enzyme)

binding [2]: binds
Substance: PKM2 in LoVo cells (from UniProt P14618 1-531) (enzyme)
